# Measured values published in the supplement of paper PMC8728848.
# The other results are listed elsewhere or left out.
# B1: SJCP1084 (Schistosoma japonicum) (protein)
# chain: MRIINLVIISTALLLINLLQTKSQANGEDTKNGTPDDPGLTKSTELKVEVQALLKDKKTNMRVKWNENLLDNTKPEYHNLRDEACELLLQIVRSVVPLSQDDGECKDVTFTKYVVGTKDGAVNVKLTITFKDSVAINQKPMDLKLKLENDFKNLQSESTLKATKPTFTVKVEKRLIPISKPQTTPPTTAKNDASKENVGDIGGEDSTVPTAAPATAASANEEKDEGDKDNKDSQHPNVLTSNVNDRNLIIALVALMILAIGVALTAAVKQR
# How the values were obtained:
# Experiment in all cases: glycan array binding signal (z-score within array); higher = stronger binding
# Settings in all cases: glycan notation: IUPAC condensed, linker removed
# [1] = target: Man(a1-2)Man(a1-3)[Man(a1-2)Man(a1-6)]Man(a1-6)[Man(a1-2)Man(a1-2)Man(a1-3)]Man
# Method in brief: (§1)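 The binding signal is a Z-score computed within each array. Data were drawn from 3228 arrays in the Consortium for Functional Glycomics database, restricted to those with a known protein sequence. Scores were averaged over arrays of the same protein sequence at different concentrations or buffers, and over linkers, and negative values can be taken as non-binding.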
# [2] = target: Man(a1-2)Man(a1-3)[Man(a1-2)Man(a1-6)]Man(a1-6)[Man(a1-2)Man(a1-2)Man(a1-3)]Man(b1-4)GlcNAc(b1-4)GlcNAc
# Method in brief: as §1
# [3] = target: Man(a1-2)Man(a1-3)[Man(a1-6)]Man(a1-6)[Man(a1-2)Man(a1-3)]Man(b1-4)GlcNAc(b1-4)GlcNAc
# Method in brief: as §1
# [4] = target: Man(a1-2)Man(a1-6)[Man(a1-3)]Man(a1-6)[Man(a1-2)Man(a1-2)Man(a1-3)]Man
# Method in brief: as §1
# [5] = target: Man(a1-2)Man(a1-6)[Man(a1-3)]Man(a1-6)[Man(a1-2)Man(a1-2)Man(a1-3)]Man(b1-4)GlcNAc(b1-4)GlcNAc
# Method in brief: as §1
# Man(a1-3)[Man(a1-6)]Man = target: Man(a1-3)[Man(a1-6)]Man
# Method in brief: as §1
# [6] = target: Man(a1-3)[Man(a1-6)]Man(a1-6)[Man(a1-2)Man(a1-3)]Man(b1-4)GlcNAc(b1-4)GlcNAc
# Method in brief: as §1
# [7] = target: Man(a1-3)[Man(a1-6)]Man(a1-6)[Man(a1-3)]Man
# Method in brief: as §1
# [8] = target: Man(a1-3)[Man(a1-6)]Man(a1-6)[Man(a1-3)]Man(b1-4)GlcNAc(b1-4)GlcNAc
# Method in brief: as §1
# [9] = target: Man(a1-3)[Man(a1-6)]Man(b1-4)GlcNAc(b1-4)GlcNAc
# Method in brief: as §1
# [10] = target: Man(a1-3)[Man(a1-6)]Man(b1-4)GlcNAc(b1-4)[Fuc(a1-6)]GlcNAc
# Method in brief: as §1
# Man(a1-6)Man = target: Man(a1-6)Man
# Method in brief: as §1
# Man(b1-4)GlcNAc = target: Man(b1-4)GlcNAc
# Method in brief: as §1
# MurNAc(b1-4)GlcNAc = target: MurNAc(b1-4)GlcNAc
# Method in brief: as §1
# Neu5Ac(a2-3)Gal = target: Neu5Ac(a2-3)Gal
# Method in brief: as §1
# [11] = target: Neu5Ac(a2-3)Gal(b1-3)GalNAc
# Method in brief: as §1
# [12] = target: Neu5Ac(a2-3)Gal(b1-3)GalNAc(b1-3)Gal(a1-4)Gal(b1-4)Glc
# Method in brief: as §1
# [13] = target: Neu5Ac(a2-3)Gal(b1-3)GalNAc(b1-4)Gal(b1-4)Glc
# Method in brief: as §1
# [14] = target: Neu5Ac(a2-3)Gal(b1-3)GalNAc(b1-4)[Neu5Ac(a2-3)]Gal(b1-4)Glc
# Method in brief: as §1
# [15] = target: Neu5Ac(a2-3)Gal(b1-3)GalNAc(b1-4)[Neu5Ac(a2-8)Neu5Ac(a2-3)]Gal(b1-4)Glc
# Method in brief: as §1
# [16] = target: Neu5Ac(a2-3)Gal(b1-3)GalNAc6S
# Method in brief: as §1
# [17] = target: Neu5Ac(a2-3)Gal(b1-3)GlcNAc
# Method in brief: as §1
# [18] = target: Neu5Ac(a2-3)Gal(b1-3)GlcNAc(b1-2)Man
# Method in brief: as §1
# [19] = target: Neu5Ac(a2-3)Gal(b1-3)GlcNAc(b1-2)Man(a1-3)[GlcNAc(b1-4)][Neu5Ac(a2-3)Gal(b1-3)GlcNAc(b1-2)Man(a1-6)]Man(b1-4)GlcNAc(b1-4)GlcNAc
# Method in brief: as §1
# [20] = target: Neu5Ac(a2-3)Gal(b1-3)GlcNAc(b1-2)Man(a1-3)[Neu5Ac(a2-3)Gal(b1-3)GlcNAc(b1-2)Man(a1-6)]Man(b1-4)GlcNAc(b1-4)GlcNAc
# Method in brief: as §1
# [21] = target: Neu5Ac(a2-3)Gal(b1-3)GlcNAc(b1-2)[Neu5Ac(a2-3)Gal(b1-3)GlcNAc(b1-4)]Man(a1-6)[Neu5Ac(a2-3)Gal(b1-3)GlcNAc(b1-2)Man(a1-3)]Man(b1-4)GlcNAc(b1-4)GlcNAc
# Method in brief: as §1
# [22] = target: Neu5Ac(a2-3)Gal(b1-3)GlcNAc(b1-3)Gal(b1-3)GlcNAc
# Method in brief: as §1
# [23] = target: Neu5Ac(a2-3)Gal(b1-3)GlcNAc(b1-3)Gal(b1-4)GlcNAc
# Method in brief: as §1
# [24] = target: Neu5Ac(a2-3)Gal(b1-3)GlcNAc(b1-3)GalNAc
# Method in brief: as §1
# [25] = target: Neu5Ac(a2-3)Gal(b1-3)GlcNAc(b1-6)GalNAc
# Method in brief: as §1
# [26] = target: Neu5Ac(a2-3)Gal(b1-3)GlcNAc6S
# Method in brief: as §1
# [27] = target: Neu5Ac(a2-3)Gal(b1-3)[Fuc(a1-4)]GlcNAc
# Method in brief: as §1
# [28] = target: Neu5Ac(a2-3)Gal(b1-3)[Fuc(a1-4)]GlcNAc(b1-3)Gal(b1-3)[Fuc(a1-4)]GlcNAc
# Method in brief: as §1
# [29] = target: Neu5Ac(a2-3)Gal(b1-3)[Fuc(a1-4)]GlcNAc(b1-3)Gal(b1-4)[Fuc(a1-3)]GlcNAc
# Method in brief: as §1
# [30] = target: Neu5Ac(a2-3)Gal(b1-3)[GlcNAc(b1-6)]GalNAc
# Method in brief: as §1
# [31] = target: Neu5Ac(a2-3)Gal(b1-3)[Neu5Ac(a2-6)]GalNAc
# Method in brief: as §1
# [32] = target: Neu5Ac(a2-3)Gal(b1-3)[Neu5Ac(a2-6)]GlcNAc(b1-3)[Fuc(a1-3)[Gal(b1-4)]GlcNAc(b1-6)]Gal(b1-4)Glc
# Method in brief: as §1
binder,measurement,setting,value
B1,glycan array binding signal (z-score),[1],0.289
same,glycan array binding signal (z-score),[2],-1.47
same,glycan array binding signal (z-score),[3],-1.28
same,glycan array binding signal (z-score),[4],0.462
same,glycan array binding signal (z-score),[5],0.087
same,glycan array binding signal (z-score),Man(a1-3)[Man(a1-6)]Man,0.411
same,glycan array binding signal (z-score),[6],-0.213
same,glycan array binding signal (z-score),[7],-0.67
same,glycan array binding signal (z-score),[8],-1.12
same,glycan array binding signal (z-score),[9],-0.739
same,glycan array binding signal (z-score),[10],-0.869
same,glycan array binding signal (z-score),Man(a1-6)Man,-1.01
same,glycan array binding signal (z-score),Man(b1-4)GlcNAc,0.833
same,glycan array binding signal (z-score),MurNAc(b1-4)GlcNAc,1.04
same,glycan array binding signal (z-score),Neu5Ac(a2-3)Gal,-1.65
same,glycan array binding signal (z-score),[11],-0.71
same,glycan array binding signal (z-score),[12],0.037
same,glycan array binding signal (z-score),[13],-0.384
same,glycan array binding signal (z-score),[14],-0.565
same,glycan array binding signal (z-score),[15],-1.13
same,glycan array binding signal (z-score),[16],0.118
same,glycan array binding signal (z-score),[17],0.547
same,glycan array binding signal (z-score),[18],-0.083
same,glycan array binding signal (z-score),[19],-0.628
same,glycan array binding signal (z-score),[20],-0.009
same,glycan array binding signal (z-score),[21],-0.197
same,glycan array binding signal (z-score),[22],0.24
same,glycan array binding signal (z-score),[23],0.519
same,glycan array binding signal (z-score),[24],-1.48
same,glycan array binding signal (z-score),[25],0.08
same,glycan array binding signal (z-score),[26],0.978
same,glycan array binding signal (z-score),[27],1.36
same,glycan array binding signal (z-score),[28],-0.405
same,glycan array binding signal (z-score),[29],0.148
same,glycan array binding signal (z-score),[30],-0.163
same,glycan array binding signal (z-score),[31],-0.036
same,glycan array binding signal (z-score),[32],-0.152
